# Test results from PubChem BioAssay AID330 (DTP/NCI, 2004).
# The list does not hold the whole screen: it is rich in T/C values a quarter to a half above the control, in often repeated tests (any T/C) and in doses without a T/C. Further doses and runs are listed elsewhere. T/C: endpoint of the treated group in % of that of the vehicle group. Some doses have a count of surviving animals in place of a T/C: the source files T/C as zero there, which appears to mark a toxic dose or a test without result, not a measured value. Some survivor counts are full or nearly so, which does not show that the dose was tolerated: survival well below the control is almost never listed, so the zero probably covers shortened survival too. Survivors were counted at the toxicity check, usually on the fifth day, unless a day is given; later deaths do not show. Schedules are NCI's codes, taken here to give the interval after Q, in days (D) or hours (H), and the number of doses after X. Some entries hold several experiments; the results are listed from low to high. Some structures stand for samples that the source files as different forms (salt, stereo form or complex); doses refer to the form tested. For survival time, the PubChem record calls one and a half times the control and up active, and a quarter to a half above the control has no call in these data; cut-offs in other NCI protocols can differ.
# Tested on: P388 leukemia ip, CD2F1 mice, survival T/C
# Test: NCI In Vivo Anticancer Drug Screen. Data for tumor model P388 Leukemia (intraperitoneal) in CD2F1 (CDF1) mice
# Settings: T/C endpoint: median survival time, higher T/C = longer survival
# [1] = dose: 25.0 mg/kg/injection, schedule: Q01DX009 (ip), vehicle: saline
# [2] = dose: 50.0 mg/kg/injection, schedule: Q01DX009 (ip), vehicle: saline with Tween-80
# [3] = dose: 50.0 mg/kg/injection, schedule: Q01DX009 (ip), vehicle: saline
# [4] = dose: 200.0 mg/kg/injection, schedule: Q01DX005 (ip), vehicle: saline with Tween-80
# [5] = dose: 200.0 mg/kg/injection, schedule: Q01DX009 (ip), vehicle: distilled water + Tween-80
# [6] = dose: 100.0 mg/kg/injection, schedule: Q01DX005 (ip), vehicle: saline with Tween-80
structure (smiles),measurement,setting,value
CN(N=O)C(N)=O,survivor count,"dose: 12.5 mg/kg/injection, schedule: Q01DX009 (ip), vehicle: saline",6 of 6
same,T/C,"dose: 12.5 mg/kg/injection, schedule: Q04DX003 (ip), vehicle: saline with Tween-80",127 % of control
same,T/C,"dose: 16.5 mg/kg/injection, schedule: Q04DX003 (ip), vehicle: saline with Tween-80",145 % of control
same,T/C,"dose: 20.0 mg/kg/injection, schedule: Q04DX003 (ip), vehicle: saline with Tween-80",147 % of control
same,survivor count,[1],5 of 6
same,T/C,"dose: 25.0 mg/kg/injection, schedule: Q04DX003 (ip), vehicle: saline with Tween-80",136 % of control
same,survivor count,[2],6 of 6
same,survivor count,[3],6 of 6
O=S=NSc1c(F)c(F)c(F)c(F)c1F,survivor count,[4],0 of 6
CCC[CH2][Sn]([CH2]CCC)[O][Sn]([Cl])([CH2]CCC)[CH2]CCC,T/C,"dose: 6.25 mg/kg/injection, schedule: Q01DX009 (ip), vehicle: saline with Tween-80",130 % of control
same,survivor count,"dose: 12.5 mg/kg/injection, schedule: Q01DX009 (ip), vehicle: saline with Tween-80",4 of 6 and 5 of 6
same,survivor count,[2],6 of 6
same,survivor count,"dose: 100.0 mg/kg/injection, schedule: Q01DX009 (ip), vehicle: saline with Tween-80",1 of 6
same,survivor count,"dose: 200.0 mg/kg/injection, schedule: Q01DX009 (ip), vehicle: saline with Tween-80",0 of 6
O=C(N/N=C/c1cccc2ccccc12)c1cccnc1,survivor count,[1],6 of 6
same,survivor count,[3],6 of 6
C(=Nc1ccncc1)c1c[nH]c2ccccc12,survivor count,"dose: 25.0 mg/kg/injection, schedule: Q01DX001 (ip), vehicle: Klucel (hydroxypropylcellulose) (HPC)",0 of 6
same,survivor count,"dose: 50.0 mg/kg/injection, schedule: Q01DX001 (ip), vehicle: Klucel (hydroxypropylcellulose) (HPC)",0 of 6 and 2 of 6
same,survivor count,"dose: 100.0 mg/kg/injection, schedule: Q01DX001 (ip), vehicle: Klucel (hydroxypropylcellulose) (HPC)",0 of 6
same,survivor count,"dose: 200.0 mg/kg/injection, schedule: Q01DX001 (ip), vehicle: Klucel (hydroxypropylcellulose) (HPC)",0 of 6
CCO/C(C)=N\P(=O)(Oc1ccccc1)Oc1ccccc1,survivor count,[5],5 of 6
c1cc2cc(C3=NCCN3)[nH]c2cc1C1=NCCN1,survivor count,"dose: 50.0 mg/kg/injection, schedule: Q01DX005 (ip), vehicle: saline",5 of 6
same,survivor count,"dose: 100.0 mg/kg/injection, schedule: Q01DX005 (ip), vehicle: saline",0 of 6
same,survivor count,"dose: 200.0 mg/kg/injection, schedule: Q01DX005 (ip), vehicle: saline",0 of 6
CC(C)NC(=O)OCc1c(COC(=O)NC(C)C)c(-c2ccc(F)c(F)c2)n2c1CCC2,T/C,"dose: 1.56 mg/kg/injection, schedule: Q01DX009 (ip), vehicle: distilled water + Tween-80",126 % of control
same,T/C,"dose: 6.25 mg/kg/injection, schedule: Q01DX009 (ip), vehicle: distilled water + Tween-80",149 % of control
same,survivor count,"dose: 100.0 mg/kg/injection, schedule: Q01DX009 (ip), vehicle: distilled water + Tween-80",6 of 6
same,survivor count,[5],3 of 6
CCC/C=C(\CC)COC(=O)Nc1ccccc1,survivor count,[4],5 of 5
C[n+]1c2cc(N)ccc2cc2ccc(N)cc21,T/C,"dose: 1.56 mg/kg/injection, schedule: Q01DX005 (ip), vehicle: saline with Tween-80",132 % of control
same,T/C,"dose: 1.56 mg/kg/injection, schedule: Q01DX009 (ip), vehicle: saline",131 % of control
same,T/C,"dose: 3.12 mg/kg/injection, schedule: Q01DX005 (ip), vehicle: saline with Tween-80",130 % of control
same,T/C,"dose: 3.13 mg/kg/injection, schedule: Q01DX009 (ip), vehicle: saline",147 % of control
same,T/C,"dose: 6.25 mg/kg/injection, schedule: Q01DX005 (ip), vehicle: saline with Tween-80",142 % of control
same,T/C,"dose: 12.5 mg/kg/injection, schedule: Q01DX005 (ip), vehicle: saline with Tween-80",149 % of control
same,T/C,"dose: 12.5 mg/kg/injection, schedule: Q01DX005 (ip), vehicle: suspension in saline",126 % of control
same,survivor count,[1],0 of 6
same,survivor count,"dose: 50.0 mg/kg/injection, schedule: Q01DX005 (ip), vehicle: saline with Tween-80",0 of 5
same,survivor count,[6],0 of 5
same,survivor count,[4],0 of 5
O=C1C(CO)=C[C@H](O)[C@H]2O[C@@H]12,T/C,"dose: 12.5 mg/kg/injection, schedule: Q01DX009 (ip), vehicle: saline + alcohol",130 % of control
same,survivor count,"dose: 50.0 mg/kg/injection, schedule: Q01DX009 (ip), vehicle: saline + alcohol",0 of 6
same,survivor count,"dose: 100.0 mg/kg/injection, schedule: Q01DX009 (ip), vehicle: saline + alcohol",0 of 6
O=[N+]([O-])c1ccc(-c2c[s+]cs2)cc1,survivor count,[5],2 of 6
Nc1cccnc1,survivor count,[3],0 of 6
same,survivor count,"dose: 100.0 mg/kg/injection, schedule: Q01DX009 (ip), vehicle: saline",0 of 6
same,survivor count,"dose: 200.0 mg/kg/injection, schedule: Q01DX009 (ip), vehicle: saline",0 of 6
O=P(c1ccccc1)(c1ccccc1)c1ccccc1 (tested in a mixture with another compound),survivor count,"dose: 50.0 mg/kg/injection, schedule: Q01DX009 (ip), vehicle: other",6 of 6
same,survivor count,"dose: 100.0 mg/kg/injection, schedule: Q01DX009 (ip), vehicle: other",6 of 6
same,survivor count,"dose: 200.0 mg/kg/injection, schedule: Q01DX009 (ip), vehicle: other",5 of 6
same,survivor count,"dose: 400.0 mg/kg/injection, schedule: Q01DX009 (ip), vehicle: other",3 of 6
O=c1n(-c2ccccc2)c(=O)n2n1C1C3C4C3C2C2(F)C4C12 (centres undefined),survivor count,"dose: 12.0 mg/kg/injection, schedule: Q04DX002 (ip), vehicle: Klucel (hydroxypropylcellulose) (HPC)",4 of 6
same,survivor count,"dose: 25.0 mg/kg/injection, schedule: Q04DX002 (ip), vehicle: Klucel (hydroxypropylcellulose) (HPC)",0 of 6
same,survivor count,"dose: 50.0 mg/kg/injection, schedule: Q04DX002 (ip), vehicle: Klucel (hydroxypropylcellulose) (HPC)",0 of 6
same,survivor count,"dose: 100.0 mg/kg/injection, schedule: Q04DX002 (ip), vehicle: Klucel (hydroxypropylcellulose) (HPC)",0 of 6
same,survivor count,"dose: 200.0 mg/kg/injection, schedule: Q04DX002 (ip), vehicle: Klucel (hydroxypropylcellulose) (HPC)",0 of 6
same,survivor count,"dose: 400.0 mg/kg/injection, schedule: Q04DX002 (ip), vehicle: Klucel (hydroxypropylcellulose) (HPC)",0 of 6
NC(=O)NC(C/[N+]([O-])=N/O)C(=O)O (centres undefined),survivor count,"dose: 200.0 mg/kg/injection, schedule: Q01DX009 (ip), vehicle: water",5 of 5
COc1cc2cc(c1Cl)N(C)C(=O)CC(OC(=O)C(C)N(C)C(=O)C(C)C)C1(C)OC1C(C)C1CC(O)(NC(=O)O1)C(OC)/C=C/C=C(C)C2 (centres undefined),T/C,"dose: 0.4 micrograms/kg/injection, schedule: Q01DX009 (ip), vehicle: saline",130 % of control
same,T/C,"dose: 0.8 micrograms/kg/injection, schedule: Q01DX009 (ip), vehicle: saline",135 % of control
same,T/C,"dose: 1.6 micrograms/kg/injection, schedule: Q01DX009 (ip), vehicle: saline",147 % of control
same,survivor count,"dose: 25.0 micrograms/kg/injection, schedule: Q01DX009 (ip), vehicle: saline + alcohol",9 of 10
same,survivor count,"dose: 50.0 micrograms/kg/injection, schedule: Q01DX009 (ip), vehicle: saline + alcohol",3 of 10
same,survivor count,"dose: 100.0 micrograms/kg/injection, schedule: Q01DX009 (ip), vehicle: saline + alcohol",8 of 10
same,survivor count,"dose: 200.0 micrograms/kg/injection, schedule: Q01DX009 (ip), vehicle: saline + alcohol",0 of 10
CCCN(CCC)CC(C)(C)C(O)c1ccc(OC)c2ccccc12 (centres undefined),survivor count,[6],0 of 6
CC1(O)c2ccccc2C(C)(O)c2c1ccc1ccccc21 (centres undefined),survivor count,[4],6 of 6
CCOC(=O)C1CC(=O)C1C(=O)OCC (centres undefined),survivor count,[2],6 of 6
COc1cccc2c1C(=O)c1c(O)c3c(c(O)c1C2=O)C/C(=N/O)CC3OC1CC(NC(=O)C(F)(F)F)C(O)C(C)O1 (centres undefined),T/C,"dose: 25.0 mg/kg/injection, schedule: Q01DX009 (ip), vehicle: other",128 % of control
